Measured values reported in patent publication US20100143980A1, “SYNTHESIS OF NOVEL XYLOSIDES AND POTENTIAL USES THEREOF” (priority 2007, published 2010).
Some entries share one result that the patent states for a list of compounds.

Test system: CHO pgsA-745
Experiment: Priming of glycosaminoglycan synthesis by xylosides, 35S-sulfate incorporation into purified HS/CS
Format: cell-based
Settings: fold more than simple triazole xyloside compound 1
Experimental: To determine whether the xylosides are able to prime the synthesis of glycosaminoglycans in cells in vitro experiments were performed using CHO pgsA-745. The cells were treated with appropriate primers in the presence of 35S—Na2SO4, glycosaminoglycans were purified and analyzed as described below. 1×10^4 cells were plated per well in Ham's/F12 complete growth medium in a 24-well plate. The cells were incubated at 37° C. in a humidified incubator for 24 hours to a confluency of about 50%. The cells were washed with sterile PBS and replaced with 450 μL ham's/F12 containing 10% dialyzed FBS. Solutions containing a specific primer at 100× the final concentration were prepared. […]
To determine whether the xylosides are able to prime the synthesis of glycosaminoglycans in cells, in vitro experiments were performed using CHO pgsA-745. The cells were treated with appropriate primers in the presence of 35S—Na2SO4, glycosaminoglycans were purified and analyzed as described below. […]
The entire contents of the wells were transferred to a microcentrifuge tube and subjected to centrifugation at 16,000×g for 5 minutes. […] The extent of priming by the various xyloside primers was evaluated by quantifying the 35S-radioactivity incorporated in to the purified HS/CS elute by liquid scintillation. […] The amount of radioactivity corresponds to the total glycosaminoglycan synthesis due to the primer. […]

OC1COC(n2cc(COc3ccccc3)nn2)C(O)C1O (centres unmarked) [compound 7]
GAG chains primed compared to compound 1: 4-5 times

OC1COC(n2cc(COC3CCCCC3)nn2)C(O)C1O (centres unmarked) [compound 4]
GAG chains primed compared to compound 1: 4-5 times
